Source: PMC6503996
These are yes or no findings as the source states them, for the method shown. Some entries that bind do so weakly or less than the wild type. Where a sequence is shown, tags or fusion partners need not be part of it.

Chains of the proteins cited; added tags and fusions are not shown.
UniProt Q3UHK6: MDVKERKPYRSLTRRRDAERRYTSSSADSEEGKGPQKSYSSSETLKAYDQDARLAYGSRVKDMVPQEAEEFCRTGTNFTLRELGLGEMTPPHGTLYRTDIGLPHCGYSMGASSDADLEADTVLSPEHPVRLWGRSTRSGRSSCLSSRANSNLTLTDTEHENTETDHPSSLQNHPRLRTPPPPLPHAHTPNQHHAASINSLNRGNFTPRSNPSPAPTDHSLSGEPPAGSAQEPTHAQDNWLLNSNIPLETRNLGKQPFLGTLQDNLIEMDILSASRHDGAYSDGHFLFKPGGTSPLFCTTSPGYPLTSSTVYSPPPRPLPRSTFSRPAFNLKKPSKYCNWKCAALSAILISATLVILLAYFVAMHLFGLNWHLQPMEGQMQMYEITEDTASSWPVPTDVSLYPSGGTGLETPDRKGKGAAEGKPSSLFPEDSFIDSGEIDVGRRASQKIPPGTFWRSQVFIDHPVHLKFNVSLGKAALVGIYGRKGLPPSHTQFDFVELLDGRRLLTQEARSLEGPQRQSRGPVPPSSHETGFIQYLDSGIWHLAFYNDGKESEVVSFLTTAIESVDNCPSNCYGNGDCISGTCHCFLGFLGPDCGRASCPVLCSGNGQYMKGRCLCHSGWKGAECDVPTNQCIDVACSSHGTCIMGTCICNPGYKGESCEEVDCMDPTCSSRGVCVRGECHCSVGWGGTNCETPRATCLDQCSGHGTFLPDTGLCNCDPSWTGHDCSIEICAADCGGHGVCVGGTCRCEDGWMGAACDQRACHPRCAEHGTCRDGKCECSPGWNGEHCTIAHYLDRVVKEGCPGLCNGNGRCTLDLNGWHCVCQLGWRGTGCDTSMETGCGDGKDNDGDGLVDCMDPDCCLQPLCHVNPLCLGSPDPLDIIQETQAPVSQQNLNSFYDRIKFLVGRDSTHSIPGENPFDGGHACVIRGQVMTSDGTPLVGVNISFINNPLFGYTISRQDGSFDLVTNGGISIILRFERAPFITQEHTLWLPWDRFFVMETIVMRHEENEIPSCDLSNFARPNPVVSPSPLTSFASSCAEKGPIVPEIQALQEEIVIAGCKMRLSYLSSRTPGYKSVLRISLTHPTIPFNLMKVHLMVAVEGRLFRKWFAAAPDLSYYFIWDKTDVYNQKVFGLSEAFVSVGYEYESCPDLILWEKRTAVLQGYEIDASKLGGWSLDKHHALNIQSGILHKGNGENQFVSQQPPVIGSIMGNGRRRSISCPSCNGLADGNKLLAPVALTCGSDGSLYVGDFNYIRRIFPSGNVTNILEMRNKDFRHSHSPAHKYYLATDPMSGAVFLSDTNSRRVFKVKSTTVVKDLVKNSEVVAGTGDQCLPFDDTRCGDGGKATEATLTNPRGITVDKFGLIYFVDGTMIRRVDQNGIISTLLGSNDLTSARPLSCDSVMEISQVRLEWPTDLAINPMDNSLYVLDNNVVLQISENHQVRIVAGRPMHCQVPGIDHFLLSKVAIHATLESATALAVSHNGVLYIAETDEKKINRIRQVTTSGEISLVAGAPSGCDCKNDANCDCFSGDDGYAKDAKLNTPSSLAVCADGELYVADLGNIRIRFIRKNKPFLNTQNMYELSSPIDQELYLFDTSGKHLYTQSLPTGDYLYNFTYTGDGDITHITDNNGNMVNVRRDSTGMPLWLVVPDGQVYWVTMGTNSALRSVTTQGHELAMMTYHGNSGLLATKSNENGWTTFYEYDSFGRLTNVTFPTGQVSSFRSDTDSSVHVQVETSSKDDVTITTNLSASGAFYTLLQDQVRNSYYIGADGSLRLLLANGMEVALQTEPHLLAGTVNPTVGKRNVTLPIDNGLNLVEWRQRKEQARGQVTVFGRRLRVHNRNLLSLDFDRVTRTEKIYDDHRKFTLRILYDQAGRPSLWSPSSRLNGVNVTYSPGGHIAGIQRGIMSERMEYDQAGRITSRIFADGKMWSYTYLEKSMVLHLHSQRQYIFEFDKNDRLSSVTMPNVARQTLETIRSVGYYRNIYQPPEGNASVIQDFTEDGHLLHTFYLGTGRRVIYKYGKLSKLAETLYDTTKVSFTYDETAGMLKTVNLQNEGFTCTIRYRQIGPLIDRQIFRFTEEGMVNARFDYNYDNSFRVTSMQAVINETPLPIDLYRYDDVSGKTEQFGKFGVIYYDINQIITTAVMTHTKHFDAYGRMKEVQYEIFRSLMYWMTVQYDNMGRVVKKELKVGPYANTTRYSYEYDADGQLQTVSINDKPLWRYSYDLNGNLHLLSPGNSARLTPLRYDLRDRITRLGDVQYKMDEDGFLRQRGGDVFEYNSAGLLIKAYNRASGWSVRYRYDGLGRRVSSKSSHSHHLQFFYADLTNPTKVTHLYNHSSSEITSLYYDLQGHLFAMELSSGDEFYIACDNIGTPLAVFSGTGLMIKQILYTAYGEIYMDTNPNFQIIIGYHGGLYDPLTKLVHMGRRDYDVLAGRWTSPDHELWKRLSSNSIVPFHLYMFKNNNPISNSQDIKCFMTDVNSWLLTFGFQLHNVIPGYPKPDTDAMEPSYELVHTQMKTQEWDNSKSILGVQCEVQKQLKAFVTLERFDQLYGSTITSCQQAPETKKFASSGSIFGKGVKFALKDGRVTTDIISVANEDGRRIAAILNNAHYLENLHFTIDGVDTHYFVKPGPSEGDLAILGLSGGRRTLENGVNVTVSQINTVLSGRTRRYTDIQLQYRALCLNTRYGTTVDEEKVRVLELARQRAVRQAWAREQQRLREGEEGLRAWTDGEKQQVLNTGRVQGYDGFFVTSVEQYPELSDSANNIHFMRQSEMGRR

Biological target: Teneurin-4 (Ten4^HA) (UniProt Q3UHK6)
Test: cell adhesion (cell aggregation) assay; HEK293T cells transfected one by one with Lphn^mVenus or Ten4^HA, detached, mixed and shaken gently 120 min at room temperature in DMEM, 10% FBS, 50 mM HEPES-NaOH pH 7.4, 10 mM CaCl2, 10 mM MgCl2; aggregates plated and seen by confocal microscopy

B1: Lphn1^mVenus (rat latrophilin-1, isoform CL1AA, with mVenus inserted in the cytoplasmic tail) (receptor, UniProt O88917-2 25-1466)
chain: LSRAGLPFGLMRRELACEGYPIELRCPGSDVIMVENANYGRTDDKICDADPFQMENVQCYLPDAFKIMSQRCNNRTQCVVVAGSDAFPDPCPGTYKYLEVQYDCVPYIFVCPGTLQKVLEPTSTHESEHQSGAWCKDPLQAGDRIYVMPWIPYRTDTLTEYASWEDYVAARHTTTYRLPNRVDGTGFVVYDGAVFYNKERTRNIVKYDLRTRIKSGETVINTANYHDTSPYRWGGKTDIDLAVDENGLWVIYATEGNNGRLVVSQLNPYTLRFEGTWETGYDKRSASNAFMVCGVLYVLRSVYVDDDSEAAGNRVDYAFNTNANREEPVSLAFPNPYQFVSSVDYNPRDNQLYVWNNYFVVRYSLEFGPPDPSAGPATSPPLSTTTTARPTPLTSTASPAATTPLRRAPLTTHPVGAINQLGPDLPPATAPAPSTRRPPAPNLHVSPELFCEPREVRRVQWPATQQGMLVERPCPKGTRGIASFQCLPALGLWNPRGPDLSNCTSPWVNQVAQKIKSGENAANIASELARHTRGSIYAGDVSSSVKLMEQLLDILDAQLQALRPIERESAGKNYNKMHKRERTCKDYIKAVVETVDNLLRPEALESWKDMNATEQVHTATMLLDVLEEGAFLLADNVREPARFLAAKQNVVLEVTVLSTEGQVQELVFPQEYASESSIQLSANTIKQNSRNGVVKVVFILYNNLGLFLSTENATVKLAGEAGTGGPGGASLVVNSQVIAASINKESSRVFLMDPVIFTVAHLEAKNHFNANCSFWNYSERSMLGYWSTQGCRLVESNKTHTTCACSHLTNFAVLMAHREIYQGRINELLLSVITWVGIVISLVCLAICISTFCFLRGLQTDRNTIHKNLCINLFLAELLFLVGIDKTQYEVACPIFAGLLHYFFLAAFSWLCLEGVHLYLLLVEVFESEYSRTKYYYLGGYCFPALVVGIAAAIDYRSYGTEKACWLRVDNYFIWSFIGPVSFVIVVNLVFLMVTLHKMIRSSSVLKPDSSRLDNIKSWALGAIALLFLLGLTWAFGLLFINKESVVMAYLFTTFNAFQGVFIFVFHCALQKKVHKEYSKCLRHSYCCIRSPPGGAHGSLKTSAMRSNTRYYTGTQSRIRRMWNDTVRKQTESSFMAGDINSTPTLNRGTMGNHLLTNPVLQPRGGTSPYNTLIAESVGFNPSSPPVFNSPGSYREPKHPLGGREACGMDTLPLNGNFNNSYSLRSGDFPPGDGGPEPPRGRNLADAAAFEKMIISELVHNNLRGASGGAKGPPPEPPVPPVPGVSEDEAGGPGGADRAEIELLYKALEEPLLLPRAQSVLYQSDLDESESCTAEDGATSRPLSSPPGRDSLYASGANLRDSPSYPDSSPEGPNEALPPPPPAPPGPPEIYYTSRPPALVARNPLQGYYQVRRPSHEGYLAAPSLEGPGPDGDGQMQLVTSL
binding: binds

B2: Lphn2^mVenus (latrophilin-2 with N-terminal Flag epitope and mVenus at a C-terminal Pml I site) (receptor, UniProt O88923 26-1487)
chain: FSRAALPFGLVRRELSCEGYSIDLRCPGSDVIMIESANYGRTDDKICDADPFQMENTDCYLPDAFKIMTQRCNNRTQCVVVTGSDVFPDPCPGTYKYLEVQYECVPYMEQKVFVCPGTLKAIVDSPSIYEAEQKAGAWCKDPLQAADKIYFMPWTPYRTDTLIEYASLEDFQNSRQTTTYKLPNRVDGTGFVVYDGAVFFNKERTRNIVKFDLRTRIKSGEAIINYANYHDTSPYRWGGKTDIDLAVDENGLWVIYATEQNNGMIVISQLNPYTLRFEATWETTYDKRAASNAFMICGVLYVVRSVYQDNESEAGKNVIDYIYNTRLSRGEHVDVPFPNQYQYIAAVDYNPRDNQLYVWNNNFILRYSLEFGPPDPAQVPTTAVTITSSAELFKTTVSTTSSTSQRGPVSSTVAGPQEGSRGTKPPPAVSTTKIPPVTNIFPLPERFCEALEMKGIKWPQTQRGMMVERPCPKGTRGTASYLCMASTGTWNPKGPDLSNCTSHWVNQLAQKIRSGENAASLANELAKHTKGTVFAGDVSSSVRLMEQLVDILDAQLQELKPSEKDSAGRSYNKLQKREKTCRAYLKAIVDTVDNLLRAETLDCWKHMNSSEQAHTATMLLDTLEEGAFVLADNLLEPTRVSMPTDNIVLEVAVLSTEGQVQDFTFHLGFKGAFSSIQLSANTVKQNSRNGLAKVVFIIYRSLGPFLSTENATVKLGADLLGRNSTIAVNSHVLSVSINKESSRVYLTDPVLFSMPHIDSDNYFNANCSFWNYSERTMMGYWSTQGCKLVDTNKTRTTCACSHLTNFAILMAHREIVYKDGVHKLLLTVITWVGIVVSLVCLAICIFTFCFFRGLQSDRNTIHKNLCINLFIAEFIFLIGIDKTQYTIACPVFAGLLHFFFLAAFSWMCLEGVQLYLMLVEVFESEYSRKKYYYVAGYLFPATVVGVSAAIDSKSYGTLEACWLHVDNYFIWSFIGPVTFIILLNIIFLVITLCKMVKHSNTLKPDSSRLENINNYRVCDGYYNTDLPGYEDNKPFIKSWVLGAFALLCLLGLTWSFGLLFVNEETVVMAYLFTAFNAFQGLFIFIFHCALQKKVRKEYAKCFRHWYCCGGLPTESPHSSVKASTSRTSARYSSGTQSRIRRMWNDTVRKQSESSFISGDINSTSTLNQGMTGNYLLTNPLLRPHGTNNPYNTLLAETVVCNAPSAPVFNSPGHSLNNTRDTSAMDTLPLNGNFNNSYSLRKADYHDGVQVVDCGLSLNDTAFEKMIISELVHNNLRGSNKTHNLELKLPVKPVIGGSSSEDDAIVADASSLMHGDNPGLEFRHKELEAPLIPQRTHSLLYQPQKKVKPEATDSYVSQLTAEADEHLQSPNRDSLYTSMPNLRDSPYPESSPDMAEDLSPSRRSENEDIYYKSMPNLGAGRQLQMCYQISRGNSDGYIIPINKEGCIPEGDVREGQMQLVTSL
binding: binds
